In all, about 320,000 compounds went through this assay and about 22,000 (6.9%) were called active. The inconclusive results got no clear call from the source; some entries with a clear call stand among them for comparison. Calls come from the whole dose curve; as a rule, active = well fitted inhibition curve with a large enough effect; inconclusive = small, poorly fitted or top-dose-only effect, or another doubt; inactive = no such curve, though single readings can be large or run the other way. Potencies of inconclusive entries are doubtful fits and often do not repeat.
experiment: Primary qHTS for delayed death inhibitors of the malarial parasite plastid, 96 hour incubation; settings: P. falciparum luciferase reporter growth; series mostly up to 28.7 µM
Procedure, shortened: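 Parasite growth measured via integrated firefly luciferase reporter in P. falciparum. Infected erythrocytes at 2% hematocrit, 0.05% parasitemia final were treated 96 hours at 37 C under 5% CO2, and luminescence was read.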
Potency is the fitted concentration of half-maximal effect.

SMILES	Potency
CCOC(=O)c1ccc(NC(=O)c2cccc(S(=O)(=O)N3c4ccccc4CC3C)c2)s1 (configuration not stated)	inconclusive: 2.62 µM [inhibitor, full curve, poor fit]
Cc1[nH]c(=O)[nH]c(=O)c1S(=O)(=O)Nc1ccc(F)c([N+](=O)[O-])c1	inactive
C=CCn1c(-c2ccc3ncccc3c2)n[nH]c1=S	inactive
O=C(Nc1c(C(=O)N2CCOCC2)oc2ccccc12)c1cccc([N+](=O)[O-])c1	active: 13.1 µM
CSc1nccc(-c2cc(Cl)sc2Cl)n1	inconclusive: 9.28 µM [inhibitor, single point]
COc1ccc(CNC(=O)CN(C(=O)c2snc(C(N)=O)c2N)c2ccccc2F)cc1	inactive
CCCCSc1nc2c(c(=O)n1CC)SC(C)C2 (configuration not stated)	inactive
O=C1c2ccccc2C(=O)C12OC2c1ccc(Cl)cc1Cl (configuration not stated)	inconclusive: 11.7 µM [inhibitor, partial curve, poor fit]
Cc1ccc(/C=C/c2ccc(=O)n(Cc3ccccc3Cl)n2)cc1	inconclusive: 8.28 µM [inhibitor, partial curve, poor fit]
Cc1nc(C)c(C(=O)N(c2ccc(C)c(C)c2)C(C(=O)NCc2ccco2)c2ccccc2)s1 (configuration not stated)	active: 10.4 µM
CCCN(CCC)S(=O)(=O)c1ccc(N2CCCC2=O)c([N+](=O)[O-])c1	inconclusive: 10.4 µM [inhibitor, single point]
O=C(Nc1ccc(Cl)cc1)c1cccc(N2C(=O)C3C4CCC(C4)C3C2=O)c1 (configuration not stated)	inconclusive: 11.7 µM [inhibitor, single point]
CCOc1cc(C(=S)N2CCOCC2)cc(Br)c1OS(=O)(=O)c1ccccc1	inconclusive: 2.08 µM [inhibitor, partial curve, poor fit]
COc1ccc(CN(C)C(=O)c2sccc2-c2ccccc2)c(OC)c1	inconclusive: 13.1 µM [inhibitor, partial curve]
O=C(CCCCCCC(=O)Nc1ccccc1)NO	active: 0.135 µM
Cc1ccccc1CC1(CO)CCCN(Cc2ccn[nH]2)C1 (configuration not stated)	active: 11.7 µM
Cc1c(NC(=O)c2cccnc2Cl)c(=O)n(-c2ccccc2)n1C	inconclusive: 18.5 µM [inhibitor, single point]
Oc1ccccc1-c1cc(C(F)(F)C(F)F)nc(-c2ccccc2)n1	inactive
Cc1nc(SCc2cccc(F)c2)[nH]c(=O)c1C#N	inconclusive: 4.65 µM [inhibitor, partial curve]
C=CCNc1nc(Nc2ccc(OC)cc2OC)nc(OCC)n1	inconclusive: 14.7 µM [inhibitor, partial curve, poor fit]
C/C(=N\NC(=O)c1c(-c2ccccc2Cl)noc1C)c1cccc(NC(=O)C(C)C)c1	inactive
CCc1ccc(C(=O)CN2C(=O)NC3(CCCCCC3)C2=O)cc1	inactive
COc1ccc(S(=O)(=O)Nc2ccc(S(=O)(=O)Nc3cc(C)nc(C)n3)cc2)cc1OC	inactive
COc1ccc(-c2nc3ccccc3c(=O)n2NC(=S)N(C)C)cc1	inactive

SMILES	Potency
CCn1c2ccc(C)cc2c2nnc(NN)nc21	inconclusive: 18.5 µM [inhibitor, single point]
O=C(NCc1ccco1)c1cc2nc(-c3ccc4c(c3)OCO4)cc(C(F)(F)F)n2n1	inconclusive: 13.1 µM [inhibitor, single point]
COc1ccc(NC(=O)CSc2nnc(C)s2)cc1S(=O)(=O)N1CCOCC1	active: 10.4 µM
COc1ccc(CCNC(=O)CC2C(=O)NCCN2CC(C)(C)C)cc1 (configuration not stated)	inactive
CCOc1cc(-c2nc3ccccc3s2)ccc1O	inactive
c1ccc(-c2nc(-c3ccco3)n3ccccc23)cc1	inactive
CCOC(=O)CNC(=O)c1cc(C)oc1C	inconclusive: 4.15 µM [inhibitor, partial curve, poor fit]
Cc1cc(C(=O)CN2C(=O)NC(C)(c3cccc(Br)c3)C2=O)c(C)n1Cc1ccco1 (configuration not stated)	inactive
CCOC(=O)C1CCCN(CC(O)COCc2ccccc2OC)C1 (configuration not stated)	inconclusive: 16.5 µM [inhibitor, partial curve, poor fit]
CCc1ccccc1NC(=O)NCc1ccc2c(c1)OCO2	inactive
Cc1c(N=N/C(C(=O)Nc2ccccc2)=C(/O)c2ccccc2)c(=O)n(-c2ccccc2)n1C	active: 3.7 µM
CCCOc1ccccc1OCC(=O)Nc1cc(Cl)ccc1-n1cncn1	active: 9.28 µM
S=C(NCCc1ccccc1)NN=C1CCCCCC1	inconclusive: 0.928 µM [inhibitor, partial curve, poor fit]
COc1ccc(OC)c(/C=N/Nc2cc(C)nc(N3CCOCC3)n2)c1	inconclusive: 18.5 µM [inhibitor, single point]
O=S(=O)(c1ccc2ccccc2c1)N(CC(O)COCc1ccco1)c1ccccc1 (configuration not stated)	inactive
Cc1cc(C)c(NC(=O)C[C@H](CC(=O)O)c2cccc3ccccc23)c(C(=O)N2CCC3(CCCC3)CC2)c1	inconclusive: 9.53 µM [inhibitor, partial curve]
CCSc1nc2c(c(=O)[nH]c(=O)n2C)n1CC(O)COc1ccccc1C (configuration not stated)	inactive
Cc1cccc(N2CCN(CC(=O)N(C3CCCC3)C3CCS(=O)(=O)C3)CC2)c1C (configuration not stated)	inconclusive: 11.7 µM [inhibitor, single point]
Cc1ccc(NC(=O)[C@H](NC(=O)[C@@H]2Cc3ccccc3CN2)c2ccccc2)cc1C	inconclusive: 18.5 µM [inhibitor, single point]
O=C1Nc2ccc(S(=O)(=O)NCCCO)c3cccc1c23	inconclusive: 0.586 µM [inhibitor, full curve, poor fit]
Cc1nn(C(C)C(=O)NC2CCC(C)CC2)c(=O)c2nn(-c3ccccc3)c(C)c12 (configuration not stated)	inactive
Cc1nn(-c2ccccc2)c2c1C(c1c(C)[nH]c(C#N)c1C)C(C#N)=C(N)O2 (configuration not stated)	inconclusive: 5.22 µM [inhibitor, partial curve]
COc1ccc(NS(=O)(=O)c2c(F)cccc2F)cc1S(=O)(=O)N1CCOCC1	inconclusive: 16.5 µM [inhibitor, partial curve, poor fit]
COc1ccc(-c2csc(N(CCCN(C)C)C(=O)c3ccc(Br)cc3)n2)cc1	inconclusive: 9.28 µM [inhibitor, partial curve]

4 entries from above, reformatted.
SMILES,Potency
COc1ccc(OC)c(/C=N/Nc2cc(C)nc(N3CCOCC3)n2)c1,"inconclusive: 18.5 µM [inhibitor, single point]"
O=S(=O)(c1ccc2ccccc2c1)N(CC(O)COCc1ccco1)c1ccccc1 (configuration not stated),inactive
Cc1cc(C)c(NC(=O)C[C@H](CC(=O)O)c2cccc3ccccc23)c(C(=O)N2CCC3(CCCC3)CC2)c1,"inconclusive: 9.53 µM [inhibitor, partial curve]"
CCSc1nc2c(c(=O)[nH]c(=O)n2C)n1CC(O)COc1ccccc1C (configuration not stated),inactive

Next compounds follow:

SMILES	Potency
COc1ccc(-c2cn3nc(SCC(=O)NC4CCCCC4)ccc3n2)cc1	inconclusive: 8.28 µM [inhibitor, partial curve]
COC(=O)c1sc(NC(=O)c2ccc(C)o2)nc1C	inconclusive: 10.4 µM [inhibitor, partial curve, poor fit]
O=C(Nc1nnc(-c2ccc(F)cc2)o1)c1cc(Cl)sc1Cl	inconclusive: 18.5 µM [inhibitor, single point]
CN(C)c1ccc(-c2noc(C3CCN(C(=O)Nc4ccc(Cl)cc4)CC3)n2)cc1	inconclusive: 11.7 µM [inhibitor, single point]
C=CCOc1ccc(CC2C(=O)N(C)C(=O)N(C)C2=O)cc1	inactive
Cc1cc(Cl)c(S(=O)(=O)NCc2ccncc2)cc1OCC(N)=O	inconclusive: 16.5 µM [inhibitor, single point]
COCCNC(=O)CCc1nnc2ccc(N3CCC(C)CC3)nn12	inactive
CC(=O)c1c(C(C)=O)c(C)n(-c2nc(-c3ccc(C)c(C)c3)c(C)s2)c1C	inactive
O=C(NC1CCCC1)c1cc(-c2ccc(Cl)c(Cl)c2)on1	inactive
Fc1ccc(Cn2c(SCc3ccc(F)c(C(F)(F)F)c3)nnc2C(F)(F)F)cc1	inactive
Cc1cc(N/N=C/c2ccc(N(C)C)cc2)nc(NCc2ccccc2)n1	inconclusive: 0.522 µM [inhibitor, full curve, poor fit]
Cc1ccc(S(=O)(=O)N(C)c2ccc(C(=O)NCC(c3cccs3)N3CCOCC3)cc2)cc1 (configuration not stated)	active: 10.4 µM
CCCCS(=O)CC(CS(=O)CCCC)OC(=O)c1ccccc1 (configuration not stated)	active: 6.57 µM
Cc1ccc(-n2ncc3c(=O)n(-c4ccc(C)c(C)c4)c(-c4ccco4)nc32)cc1	active: 9.28 µM
O=C(c1cccc([N+](=O)[O-])c1)N1CCN(c2cccc(Cl)c2)CC1	inconclusive: 1.47 µM [inhibitor, partial curve, poor fit]
O=C(Nc1cccc(S(=O)(=O)N2CCCCC2)c1)c1c2c(nc3ccccc13)CCN(Cc1ccccc1)C2	active: 2.62 µM
O=C(N/N=C/c1ccccc1C(=O)O)c1cc(-c2ccc3c4c(cccc24)CC3)n[nH]1	inactive
O=c1oc(CCCO)cc2ccc(C#CC3(O)CCCCC3)cc12	inconclusive: 16.5 µM [inhibitor, single point]
CC1(C(=O)N/N=C/c2ccccc2)CC1(Cl)Cl (configuration not stated)	active: 3.29 µM
CCC(C)NCC(=O)Nc1ccc([N+](=O)[O-])cc1C(=O)Nc1ccccc1F (configuration not stated)	inconclusive: 11.7 µM [inhibitor, single point]
CCN(CC)CCNC(=O)C12CC3CC(C)(CC(C)(C3)C1)C2	inconclusive: 18.5 µM [inhibitor, single point]
COc1ccc(N2CCN(C(=O)CCC(=O)c3cc(C)sc3C)CC2)cc1	inconclusive: 18.5 µM [inhibitor, single point]
O=C(CC1CCCC1)N1CCN(S(=O)(=O)c2ccccc2)CC1	inconclusive: 11.7 µM [inhibitor, single point]
CN(c1ccccc1)c1nc2ccsc2c(=O)s1	inconclusive: 3.7 µM [inhibitor, single point]
